Results taken from the supplement of paper PMC10470496.
Structures can show the parent of a compound that is named as a salt. This is one part of the list. Repeats are few or missing, and single values can be far off.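 The three strains are clinical Candida auris isolates from the CDC resistance isolate bank, from clades III, IV and I, grown in RPMI-1640 at 35°C. Growth is background-corrected OD600 relative to vehicle-only wells on the same plate; a hit meant over 50% inhibition in at least two strains plus a plate-corrected B-score above 0.1.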

How the values were obtained:
Test in all cases: growth relative to vehicle control (OD600 ratio) (fraction); higher = less inhibition
Settings in all cases: 24 h
[1] = system: C. auris AR-384
[2] = system: C. auris AR-386
[3] = system: C. auris AR-387

| Structure (SMILES) | growth ([1]; 1 µM) | growth ([1]; 10 µM) | growth ([2]; 1 µM) | growth ([2]; 10 µM) | growth ([3]; 1 µM) | growth ([3]; 10 µM) |
| --- | --- | --- | --- | --- | --- | --- |
| CCc1cccc2c3c([nH]c12)C(CC)(CC(=O)O)OCC3 (configuration not stated) [Etodolac] | 0.79 | 0.98 | 1.33 | 1.2 | 1.31 | 1.19 |
| O=C([O-])c1ccccc1.[Na+] [Sodium benzoate] | 0.69 | 0.59 | 0.9 | 0.69 | 1 | 0.81 |
| COCC(=O)Nc1c(I)c(C(=O)NCC(O)CO)c(I)c(C(=O)N(C)CC(O)CO)c1I (configuration not stated) [Iopromide] | 0.83 | 0.84 | 0.78 | 0.68 | 1.04 | 1.07 |
| c1ccc(-c2ccc(C(c3ccccc3)n3ccnc3)cc2)cc1 (configuration not stated) [Bifonazole] | 0.61 | 0.6 | 0.85 | 0.48 | 0.4 | 0.22 |
| CN(N=O)C(=O)NC1C(O)OC(CO)C(O)C1O (configuration not stated) [Streptozotocin (STZ)] | 0.9 | 1.44 | 1.22 | 0.84 | 0.9 | 1.03 |
| COCCCC/C(=N\OCCN)c1ccc(C(F)(F)F)cc1 [Fluvoxamine maleate] | 0.96 | 1.14 | 1.36 | 1.3 | 1.18 | 0.96 |
| [I-].[K+] [Potassium Iodide] | 0.77 | 0.75 | 1.07 | 1.07 | 0.75 | 0.9 |
| C/C(O)=C(\C#N)C(=O)Nc1ccc(C(F)(F)F)cc1 [Teriflunomide] | 0.96 | 0.9 | 0.73 | 1.25 | 0.92 | 1.06 |
| COc1cc2nccc(Oc3ccc(NC(=O)C4(C(=O)Nc5ccc(F)cc5)CC4)cc3)c2cc1OC | 0.63 | 0.63 | 0.66 | 0.85 | 0.76 | 0.94 |
| C[C@H]1O[C@@H](n2cc(F)c(=O)[nH]c2=O)[C@H](O)[C@@H]1O [Doxifluridine] | 0.86 | 0.91 | 1.06 | 1.17 | 0.97 | 1.01 |
| CC1=C(/C=C/C(C)=C/C=C/C(C)=C/C(=O)O)C(C)(C)CCC1 [Tretinoin] | 0.83 | 0.52 | 1.07 | 1.06 | 0.79 | 1.05 |
| CCOC(=O)[C@H](CCc1ccccc1)N[C@@H](C)C(=O)N1C(=O)N(C)C[C@H]1C(=O)O [Imidapril HCl] | 1.21 | 1.27 | 0.97 | 1.35 | 1.05 | 1.1 |
| CSc1nc2cc(Cl)c(Oc3cccc(Cl)c3Cl)cc2[nH]1 [Triclabendazole] | 0.77 | 0.13 | 0.83 | 0.76 | 0.85 | 0.01 |
| CO/N=C(\C(=O)N[C@@H]1C(=O)N2C(C(=O)O)=C(COC(C)=O)CS[C@H]12)c1csc(N)n1 [Cefotaxime sodium] | 1.11 | 0.97 | 1.11 | 0.96 | 1.17 | 1.12 |
| CN1CCCC(n2nc(Cc3ccc(Cl)cc3)c3ccccc3c2=O)CC1 (configuration not stated) [Azelastine HCl] | 0.99 | 0.95 | 1.04 | 1.2 | 1.07 | 1.13 |
| CC(C)(Oc1ccc(CCNC(=O)c2ccc(Cl)cc2)cc1)C(=O)O [Bezafibrate] | 0.91 | 0.84 | 0.92 | 0.67 | 0.72 | 0.7 |
| COc1ccc2cc([C@H](C)C(=O)O)ccc2c1 [Naproxen Sodium] | 0.85 | 1.12 | 1.17 | 0.77 | 0.76 | 1.07 |
| CCCC(=O)[O-].[Na+] [Sodium butyrate] | 1.3 | 1.33 | 1.23 | 1.28 | 1.26 | 1.06 |
| O[C@H]1[C@H](O)[C@@H](O)[C@H](O)[C@@H](O)[C@H]1O [i-Inositol] | 0.78 | 0.75 | 0.73 | 0.91 | 0.83 | 1.02 |
| O=C(O)CCCCCCCC(=O)O [Azelaic acid] | 0.81 | 0.86 | 0.75 | 0.68 | 0.7 | 0.85 |
| CCOC(=O)c1ncn2c1CN(C)C(=O)c1cc(F)ccc1-2 [Flumazenil] | 1.03 | 1.29 | 0.96 | 0.74 | 0.67 | 0.84 |
| Cc1cccc(N(C)C(=S)Oc2ccc3ccccc3c2)c1 [Tolnaftate] | 0.74 | 0.53 | 0.76 | 0.68 | 0.66 | 0.67 |
| COC(=O)C1=C(C)NC(C)=C(C(=O)OC)C1c1ccccc1[N+](=O)[O-] [Nifedipine] | 0.65 | 0.57 | 0.88 | 0.82 | 0.91 | 1.03 |
| C[C@H](CS)C(=O)N1CCC[C@H]1C(=O)O [Captopril] | 1.29 | 1.06 | 1.16 | 0.7 | 1.12 | 0.9 |

| Structure (SMILES) | growth ([1]; 1 µM) | growth ([1]; 10 µM) | growth ([2]; 1 µM) | growth ([2]; 10 µM) | growth ([3]; 1 µM) | growth ([3]; 10 µM) |
| --- | --- | --- | --- | --- | --- | --- |
| O=C1C2CC3CC1CC(O)(C3)C2 [Idramantone] | 0.95 | 0.72 | 0.65 | 0.94 | 0.93 | 0.85 |
| C[C@H](CCC(=O)O)[C@H]1CC[C@H]2[C@@H]3CC[C@@H]4C[C@H](O)CC[C@]4(C)[C@H]3CC[C@]12C [Lithocholic acid] | 0.82 | 0.95 | 1.29 | 0.75 | 0.63 | 0.84 |
| COC(=O)C1=C(C)NC(C)=C(C(=O)OC2CCCN(Cc3ccccc3)C2)C1c1cccc([N+](=O)[O-])c1 (configuration not stated) [Benidipine HCl] | 0.9 | 0.95 | 0.87 | 0.9 | 0.75 | 0.81 |
| CN1CCN(c2ccc(C(=O)Nc3n[nH]c4ccc(Cc5cc(F)cc(F)c5)cc34)c(NC3CCOCC3)c2)CC1 [Entrectinib (RXDX-101)] | 0.95 | 0.93 | 0.87 | 1.08 | 0.78 | 0.83 |
| NC[C@H]1CC[C@H](C(=O)O)CC1 [Tranexamic Acid] | 1.4 | 1.26 | 1.08 | 1.33 | 1.21 | 1.11 |
| CN1CCOC(c2ccccc2)c2ccccc2C1 (configuration not stated) [Nefopam HCl] | 0.52 | 0.49 | 0.72 | 0.85 | 0.73 | 0.72 |
| Cn1ncc(Cl)c1-c1cc(C(=O)N[C@H](CN)Cc2cccc(F)c2)sc1Cl | 1.09 | 0.8 | 0.9 | 1.02 | 0.79 | 1.24 |
| NCc1ccc(S(N)(=O)=O)cc1 [Mafenide Acetate] | 1.26 | 1.56 | 1.34 | 1.26 | 1.35 | 1.2 |
| CC[C@@H]([C@H](C)O)n1ncn(-c2ccc(N3CCN(c4ccc(OC[C@@H]5CO[C@@](Cn6cncn6)(c6ccc(F)cc6F)C5)cc4)CC3)cc2)c1=O [Posaconazole] | 0.32 | 0.35 | 0.08 | 0.07 | 0.04 | 0.05 |
| C[N+](C)(C)CC(O)CC(=O)[O-] (racemic) [DL-Carnitine HCl] | 0.78 | 1.02 | 1.27 | 0.98 | 1.28 | 1.28 |
| CC(=O)O[C@]1(C(C)=O)CC[C@H]2[C@@H]3C=C(Cl)C4=CC(=O)CC[C@]4(C)[C@H]3CC[C@@]21C [Chlormadinone acetate] | 1.11 | 1.27 | 1.03 | 1 | 0.94 | 1.44 |
| C#C[C@]1(O)CC[C@H]2[C@@H]3CCc4cc(OC5CCCC5)ccc4[C@H]3CC[C@@]21C [Quinestrol] | 1.18 | 1.17 | 1.36 | 1.01 | 1.57 | 1.45 |
| O=c1c(-n2ccnn2)c[nH]n1-c1cc(N2CCOCC2)ncn1 [Molidustat (BAY 85-3934)] | 0.77 | 0.74 | 0.88 | 0.55 | 0.6 | 0.66 |
| CCN(CC)CC#CCOC(=O)C(O)(c1ccccc1)C1CCCCC1 (configuration not stated) [Oxybutynin chloride] | 0.81 | 0.85 | 0.67 | 0.84 | 0.77 | 0.8 |
| Clc1ccc(C(Cn2ccnc2)OCc2ccc(Sc3ccccc3)cc2)c(Cl)c1 (configuration not stated) [Fenticonazole Nitrate] | 0.86 | 0.38 | 1.26 | 0.79 | 0.45 | 0.21 |
| CCOC(=O)c1ccc(OC(=O)CCCCCNC(=N)N)cc1 [Gabexate Mesylate] | 0.84 | 0.95 | 1.03 | 0.99 | 1.14 | 1 |
| Cc1cc(NC(=O)C2=C(O)c3ccccc3S(=O)(=O)N2C)no1 [Isoxicam] | 1.19 | 0.85 | 1.07 | 0.75 | 0.65 | 0.66 |
| CC(C)c1nc(CN(C)C(=O)N[C@H](C(=O)N[C@@H](Cc2ccccc2)C[C@H](O)[C@H](Cc2ccccc2)NC(=O)OCc2cncs2)C(C)C)cs1 [Ritonavir] | 1.14 | 1.4 | 1.28 | 0.6 | 0.7 | 0.57 |
| Cc1nccn1CC1CCc2c(c3ccccc3n2C)C1=O (configuration not stated) [Ondansetron Hydrochloride Dihydrate] | 1.22 | 1.37 | 1.37 | 1.29 | 1.24 | 1.22 |
| Cc1cn[nH]c1 [Fomepizole] | 1.01 | 1.19 | 1.09 | 1.21 | 0.97 | 0.91 |
| Nc1ccc(S(=O)(=O)NC(=O)c2ccccc2)cc1 [Sulfabenzamide] | 0.79 | 0.98 | 0.98 | 0.79 | 0.65 | 0.65 |
| C=CC(=O)N1CCC[C@@H](n2nc(-c3ccc(Oc4ccccc4)cc3)c3c(N)ncnc32)C1 | 0.97 | 0.92 | 1.3 | 1.05 | 0.78 | 0.67 |
| CCOC(=O)CCC(=O)O[C@H]1[C@H](O[C@@H]2[C@@H](C)[C@H](O[C@H]3C[C@@](C)(OC)[C@@H](O)[C@H](C)O3)[C@@H](C)C(=O)O[C@H](CC)[C@@](C)(O)[C@H](O)[C@@H](C)C(=O)[C@H](C)C[C@@]2(C)O)O[C@H](C)C[C@@H]1N(C)C [Erythromycin Ethylsuccinate] | 0.87 | 0.86 | 0.98 | 1.06 | 1.11 | 1.2 |

Two compounds from above, showing only growth ([2]; 10 µM) and growth ([1]; 10 µM):
Structure (SMILES) | growth ([2]; 10 µM) | growth ([1]; 10 µM)
O=C1C2CC3CC1CC(O)(C3)C2 [Idramantone] | 0.94 | 0.72
Cc1cc(NC(=O)C2=C(O)c3ccccc3S(=O)(=O)N2C)no1 [Isoxicam] | 0.75 | 0.85

Part of the list above in order of formula weight, rising.

| Structure (SMILES) | growth ([1]; 1 µM) | growth ([1]; 10 µM) | growth ([2]; 1 µM) | growth ([2]; 10 µM) | growth ([3]; 1 µM) | growth ([3]; 10 µM) |
| --- | --- | --- | --- | --- | --- | --- |
| Nc1ccc(S(=O)(=O)NC(=O)c2ccccc2)cc1 [Sulfabenzamide] | 0.79 | 0.98 | 0.98 | 0.79 | 0.65 | 0.65 |
| C#C[C@]1(O)CC[C@H]2[C@@H]3CCc4cc(OC5CCCC5)ccc4[C@H]3CC[C@@]21C [Quinestrol] | 1.18 | 1.17 | 1.36 | 1.01 | 1.57 | 1.45 |
| CCOC(=O)[C@H](CCc1ccccc1)N[C@@H](C)C(=O)N1C(=O)N(C)C[C@H]1C(=O)O [Imidapril HCl] | 1.21 | 1.27 | 0.97 | 1.35 | 1.05 | 1.1 |
